PubChem BioAssay AID1259322 – Peter MacCallum Cancer Centre | 2017
Here is one part, drawn at random, of 208 reagents. Of all reagents, 72 (35%) got an active call. 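Four separate siRNAs per kinase gene, 52 genes in all; PAR2 agonist unnamed, with its dose and timing unknown.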 Reagents against one gene are numbered here. Reagent sequences are not shown. Not stated in the record: the amount of reagent, the time to read-out.

- Assay: 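Kinase knock-downs reducing the TRPV4 calcium plateau after PAR2 stimulation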 (follow-up of hits)
- Cells: human HEK293 cells with stable inducible TRPV4
- Reagents: single siRNA against human genes
- Treatment: PAR2 activation; agonist identity, dose and timing not stated
- Measurement: 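Fura-2 imaging of cytosolic calcium over time, first peak marking PAR2 and later plateau marking TRPV4 opening; both relative to mock on each plate, mean of two plates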
- Scale: TRPV4 plateau calcium, % of mock: higher = stronger PAR2-dependent TRPV4 calcium entry; PAR2 peak calcium, % of mock: higher = stronger direct PAR2 calcium response
- Call rule: 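Scored active if TRPV4 plateau drops under 90% of mock while PAR2 peak is kept above 79% of mock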

TRPV4 plateau calcium, % of mock	PAR2 peak calcium, % of mock	Call	target	siRNA no.
64.6	67.7	inactive	PKM (pyruvate kinase M1/2)	1
104	93.1	inactive	PKM (pyruvate kinase M1/2)	2
94.8	100	inactive	PKM (pyruvate kinase M1/2)	3
85.6	92.8	active	PKM (pyruvate kinase M1/2)	4
79.6	84.7	active	STK39 (serine/threonine kinase 39)	1
65.8	60.4	inactive	STK39 (serine/threonine kinase 39)	2
87.9	90.4	active	STK39 (serine/threonine kinase 39)	3
60.6	69.3	inactive	STK39 (serine/threonine kinase 39)	4
88.5	93.3	active	PHKG2 (phosphorylase kinase catalytic subunit gamma 2)	1
111	103	inactive	PHKG2 (phosphorylase kinase catalytic subunit gamma 2)	2
85.1	87	active	PHKG2 (phosphorylase kinase catalytic subunit gamma 2)	3
107	98.4	inactive	PHKG2 (phosphorylase kinase catalytic subunit gamma 2)	4
94.9	104	inactive	SGK3 (serum/glucocorticoid regulated kinase family member 3)	1
97	88.7	inactive	SGK3 (serum/glucocorticoid regulated kinase family member 3)	2
80.3	89.9	active	SGK3 (serum/glucocorticoid regulated kinase family member 3)	3
78.7	76	inactive	SGK3 (serum/glucocorticoid regulated kinase family member 3)	4
80.1	75.7	inactive	IGF2R (insulin like growth factor 2 receptor)	1
91.1	103	inactive	IGF2R (insulin like growth factor 2 receptor)	2
91.4	80.5	inactive	IGF2R (insulin like growth factor 2 receptor)	3
69.3	75	inactive	IGF2R (insulin like growth factor 2 receptor)	4
99.2	99.6	inactive	BRSK2 (BR serine/threonine kinase 2)	1
91.8	101	inactive	BRSK2 (BR serine/threonine kinase 2)	2
89.6	101	active	BRSK2 (BR serine/threonine kinase 2)	3
84.7	91.7	active	BRSK2 (BR serine/threonine kinase 2)	4
81.8	78.8	inactive	SIK2 (salt inducible kinase 2)	1
78.2	88.4	active	SIK2 (salt inducible kinase 2)	2
56.6	51.8	inactive	SIK2 (salt inducible kinase 2)	3
59.7	51	inactive	SIK2 (salt inducible kinase 2)	4
66.1	78.7	inactive	COMMD3 (COMM domain containing 3)	1
99.1	94.3	inactive	COMMD3 (COMM domain containing 3)	2
74.9	75.1	inactive	COMMD3 (COMM domain containing 3)	3
58.9	56.5	inactive	COMMD3 (COMM domain containing 3)	4
